Source: PubChem BioAssay (NCATS)
Where “and” joins values, the source holds several entries; their conditions need not be identical. Equal entries are not always repeated. For some of these results: Most of the hits are listed elsewhere, so they are rarer here than in the full data. Inconclusive results are not listed. Only a part is listed here, and it is no random draw. Calls of active or inactive are those of the source. Unless noted, calls come from the whole dose curve; as a rule, active = well fitted curve in the direction sought with a large enough effect; inconclusive = small, poorly fitted or top-dose-only effect, or another doubt; inactive = no such curve, though single readings can be large; an effect the other way counts as inactive or inconclusive.

Protein sequences, listed by entry. Tags and fused reporters are not part of them. Lines headed by an entry give the natural chain unless they say otherwise; changes in a name come on top.
UniProt O15648: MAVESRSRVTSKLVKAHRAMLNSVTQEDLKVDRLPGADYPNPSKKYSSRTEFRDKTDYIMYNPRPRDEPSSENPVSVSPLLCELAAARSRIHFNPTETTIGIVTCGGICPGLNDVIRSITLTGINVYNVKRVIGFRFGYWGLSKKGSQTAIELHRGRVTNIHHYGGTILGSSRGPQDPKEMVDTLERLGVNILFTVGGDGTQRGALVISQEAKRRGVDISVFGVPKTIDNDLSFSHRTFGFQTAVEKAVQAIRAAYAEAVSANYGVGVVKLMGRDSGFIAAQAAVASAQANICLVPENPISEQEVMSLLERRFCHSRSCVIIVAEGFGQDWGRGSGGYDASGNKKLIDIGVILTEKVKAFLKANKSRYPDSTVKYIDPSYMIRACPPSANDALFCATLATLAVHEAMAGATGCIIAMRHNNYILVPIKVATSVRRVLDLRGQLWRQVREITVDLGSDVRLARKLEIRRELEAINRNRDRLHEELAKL
UniProt P03372, whole entry, looked up: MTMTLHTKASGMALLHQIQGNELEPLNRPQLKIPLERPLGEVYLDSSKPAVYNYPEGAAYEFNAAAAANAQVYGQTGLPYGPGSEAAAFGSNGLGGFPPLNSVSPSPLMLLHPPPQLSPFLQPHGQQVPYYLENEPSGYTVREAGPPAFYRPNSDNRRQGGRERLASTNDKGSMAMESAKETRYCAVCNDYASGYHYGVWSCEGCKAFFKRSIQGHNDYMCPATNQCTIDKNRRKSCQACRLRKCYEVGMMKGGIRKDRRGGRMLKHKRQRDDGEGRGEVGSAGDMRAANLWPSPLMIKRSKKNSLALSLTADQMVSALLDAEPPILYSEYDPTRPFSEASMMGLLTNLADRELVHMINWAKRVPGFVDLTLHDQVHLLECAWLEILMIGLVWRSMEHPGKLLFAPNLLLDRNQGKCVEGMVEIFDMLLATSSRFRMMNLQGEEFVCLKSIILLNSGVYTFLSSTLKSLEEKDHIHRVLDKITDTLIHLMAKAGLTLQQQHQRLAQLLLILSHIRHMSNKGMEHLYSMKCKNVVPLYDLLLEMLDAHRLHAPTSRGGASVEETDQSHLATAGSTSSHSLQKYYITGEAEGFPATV
UniProt P10275: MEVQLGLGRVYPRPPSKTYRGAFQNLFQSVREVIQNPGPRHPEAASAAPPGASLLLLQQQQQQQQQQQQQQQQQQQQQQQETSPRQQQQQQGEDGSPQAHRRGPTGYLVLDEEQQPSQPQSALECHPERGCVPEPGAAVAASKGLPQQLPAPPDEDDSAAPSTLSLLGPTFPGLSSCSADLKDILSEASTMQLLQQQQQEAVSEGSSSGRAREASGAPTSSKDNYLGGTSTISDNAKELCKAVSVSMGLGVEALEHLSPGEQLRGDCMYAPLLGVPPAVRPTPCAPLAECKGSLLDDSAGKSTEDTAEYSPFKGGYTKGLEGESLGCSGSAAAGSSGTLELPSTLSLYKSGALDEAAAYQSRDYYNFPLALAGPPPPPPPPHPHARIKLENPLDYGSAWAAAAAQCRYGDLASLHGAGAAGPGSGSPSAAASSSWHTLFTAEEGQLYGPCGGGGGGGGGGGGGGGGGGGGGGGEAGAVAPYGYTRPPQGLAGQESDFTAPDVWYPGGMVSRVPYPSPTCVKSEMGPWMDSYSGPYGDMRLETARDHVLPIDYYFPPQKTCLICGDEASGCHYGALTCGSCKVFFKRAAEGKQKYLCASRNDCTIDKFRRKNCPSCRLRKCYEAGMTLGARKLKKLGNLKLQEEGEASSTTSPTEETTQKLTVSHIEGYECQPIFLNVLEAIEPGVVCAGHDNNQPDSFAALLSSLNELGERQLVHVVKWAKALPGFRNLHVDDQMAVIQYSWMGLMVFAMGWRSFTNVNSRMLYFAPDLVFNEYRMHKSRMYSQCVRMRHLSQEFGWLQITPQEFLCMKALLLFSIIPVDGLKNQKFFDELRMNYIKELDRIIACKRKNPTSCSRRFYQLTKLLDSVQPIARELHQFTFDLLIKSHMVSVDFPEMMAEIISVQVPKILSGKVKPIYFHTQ

Assays:
[1] = target: ATP-dependent 6-phosphofructokinase (Trypanosoma brucei brucei) (UniProt O15648); experiment: qHTS Assay to Find Inhibitors of T. brucei phosphofructokinase: hit validation (AID 492961);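 note: luminescence reports ADP formed as PFK phosphorylates fructose-6-phosphate with ATP; % is set by controls: 0 for no effect and ±100 for the full control effect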; details: T. brucei PFK, ADP-Glo luminescence; at 51.4 µM (top of the series)
Summary of the method: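 PFK 1.25 nM, F6P 0.5 mM, ATP 0.1 mM, MgCl2 5 mM, 0.1 M TEA pH 8.0, Tween20 0.01%, BSA 0.1%; 45 min RT. ADP-Glo two-step detection, luminescence. qHTS titration; curve fitting with curve-class categorization.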

[2] = target: Estrogen receptor (Homo sapiens) (UniProt P03372); experiment: qHTS assay for small molecule antagonists of estrogen receptor alpha signaling (AID 588513; active = well fitted curve in the direction sought with a large enough effect in the signal ratio, with a control signal flat, not every such curve was filed as active; the % refers to the signal ratio; note: % is set by controls: 0 for no effect and ±100 for the full control effect); details: ER-alpha-UAS-bla HEK293, beta-lactamase ratio, antagonist mode; at 76.9 µM (top of the series)
Summary of the method: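 Antagonist-mode qHTS in ER-alpha-UAS-bla HEK 293 cells: compound titration, 0.5nM estradiol for 18 h, CCF4 fluorescence, Hill-derived IC50.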

[3] = target: Estrogen receptor (Homo sapiens) (UniProt P03372); experiment: qHTS assay for small molecule agonists of estrogen receptor alpha signaling (AID 588514; calls by dose curve;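 note: 0% = vehicle only and 100% = reference agonist; nearly all actives have a fitted effect of over 70% in size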); details: ER-alpha-UAS-bla HEK293, beta-lactamase ratio, 18 h, percent of full estradiol response, vehicle zero; at 76.8 µM (top of the series)
Summary of the method: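 Reporter-gene assay. […] controls beta-lactamase in HEK 293 GripTite cells; after 18 hrs with compound, CCF4 substrate is added for 2 hrs and fluorescence is read.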

[4] = Cell Viability - LYMP2-022 (AID 987); details: LYMP2-022 lymphoblastoid cell viability; at 92.2 µM (top of the series);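 note: cells exposed to compound for 24 hr; 0% = DMSO alone and full effect = tetraoctylammonium bromide at 92 µM; nearly all actives have a fitted effect of over 55% in size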
Summary of the method: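 Acute toxicity in a human lymphoblastoid line is scored as decreased intracellular ATP after 24 hr compound treatment at 37 C. ATP is measured by CellTiter-Glo luminescence; curves are fitted with the Hill equation to give AC50.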

[5] = Cell Viability - LYMP2-024 (AID 988); details: LYMP2-024 lymphoblastoid cell viability; at 92.2 µM (top of the series);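 note: cells exposed to compound for 24 hr at 37 °C; plate controls were DMSO only for no effect and 92 µM tetraoctylammonium bromide for full effect; nearly all actives have a fitted effect of over 60% in size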
[6] = Cell Viability - LYMP2-026 (AID 989); details: LYMP2-026 lymphoblastoid cell viability, qHTS; at 92.2 µM (top of the series);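 note: cells exposed to compound for 24 h at 37 °C; % is set by controls: 0 for no effect and ±100 for the full control effect; nearly all actives have a fitted effect of over 50% in size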
Summary of the method: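 Concentration-dependent loss of intracellular ATP in human lymphoblastoid cells after 24 hr at 37 C, quantified by luciferase luminescence. AC50 derived from standard Hill equation.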

[7] = Cell Viability - LYMP1-002 - Assay at 24 hr (AID 993); details: LYMP1-002 lymphoblastoid cells viability; at 92.2 µM (top of the series); note: % is set by controls: 0 for no effect and ±100 for the full control effect
Summary of the method: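 qHTS, LYMP1-002 lymphoblastoid, 24 h cpd, 37 C, CellTiter-Glo ATP luminescence; AC50 via Hill eq.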

[8] = Cell Viability - LYMP1-002 - Assay at 40 hr (AID 994); details: LYMP1-002 lymphoblastoid cell viability; at 92.2 µM (top of the series);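 note: 0% = DMSO only and full inhibition = 92 µM tetraoctylammonium bromide; nearly all actives have a fitted effect of over 60% in size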
Summary of the method: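 Viability in the human lymphoblastoid line was measured as intracellular ATP via CellTiter-Glo after 40 hr compound exposure. Tetraoctylammonium bromide served as positive control.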

[9] = qHTS Assay for Identification of Small Molecule Inducers of Hypoxia Response (AID 2120; active = well fitted curve in the direction sought with a large enough effect in the signal ratio, with a control signal flat, not every such curve was filed as active; the % refers to the signal ratio; note: 0% is about no effect); details: hypoxia response reporter cells, beta-lactamase ratio readout; at 104 µM (top of the series)
Summary of the method: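 Induction of beta-lactamase reporter activity was measured in CellSensor HRE-bla ME-180 cells after 17 h compound treatment at 37 degrees C, using CCF4 substrate and the 460nm/530nm emission ratio to derive AC50 values.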

[10] = target: Androgen receptor (Homo sapiens) (UniProt P10275); experiment: qHTS assay for small molecule agonists of androgen receptor signaling (AID 588515; active = well fitted curve in the direction sought with a large enough effect in the signal ratio, with a control signal flat; the % refers to the signal ratio; note: % is set by controls: 0 for no effect and ±100 for the full control effect); details: AR-UAS-bla HEK293, beta-lactamase ratio, agonist 16 h; active compounds read high
Summary of the method: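 EC50 and efficacy came from Hill fits of titrations (up to 92 uM) normalized to 30 nM R1881 as 100% and DMSO as 0%. Compound exposure was 16 h at 37 C on AR-UAS-bla HEK293 cells, with a 405/460/530 nm CCF4 fluorescence read.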

CC(C)(C)c1ccc(O)cc1
inactive: activity change, negative = inhibition [1] 6.74% | activity, negative = inhibition [2] 9.2% | activation [3] 6.84%

Cc1ccc2ccccc2c1C
inactive: viability change, negative = cytotoxic [4] -8.9% | activity change, negative = cytotoxicity [5] -4.04% | activity change, negative = cytotoxic [6] -9.84% | activity change, negative = cytotoxicity [7] 5.12% | viability change, negative = cytotoxic [8] -5.1% | activation [9] 0.181% | activity, negative = inhibition [2] 19.9% | activation [3] 2.77% | activation [10] 10.4%

Oc1c(Cl)cc(Cl)cc1Cl
inactive: viability change, negative = cytotoxic [4] -22.4% | activity change, negative = cytotoxicity [5] -0.11% | activity change, negative = cytotoxic [6] -5.34% | activity change, negative = cytotoxicity [7] -8.71% | viability change, negative = cytotoxic [8] 0.0482% | activation [9] -0.146%

Cc1ccc(O)cc1C
inactive: viability change, negative = cytotoxic [4] -17.6% | activity change, negative = cytotoxicity [5] -2.52% | activity change, negative = cytotoxic [6] -10.8% | activity change, negative = cytotoxicity [7] -4.84% | viability change, negative = cytotoxic [8] -2.37% | activation [9] 0.604% | activity, negative = inhibition [2] 2.25% | activation [3] 6.06%

O=[N+]([O-])c1ccccc1Cl
inactive: viability change, negative = cytotoxic [4] -0.885% | activity change, negative = cytotoxicity [5] 12.4% | activity change, negative = cytotoxic [6] 3.03% | activity change, negative = cytotoxicity [7] 8.05% | viability change, negative = cytotoxic [8] -2.59% | activation [9] -0.0139% | activity, negative = inhibition [2] 12.4% and -14.5% | activation [3] -2.95% and -0.67%
